Data from US10556878B2, “Thiourea compounds and their use as inhibitors of Sirt2 or Sirt5” (CORNELL UNIVERSITY, priority 2013, dated 2020).
For at least one compound, name, drawing or mass did not settle the structure.

System: MCF-7 cell lines
Assay: protein succinylation Western blot in MCF-7 cells
Format: cell-based, human
Conditions: 100 μM, 0.5, 1, 2, 4, 24, 48, 72 hours

## CCOC(=O)CCNC(=S)NCCCCC(NC(=O)OCc1ccccc1)C(=O)Nc1cccc(O)c1 (stereo not shown) [Compound I5-2e]
  succinylation level on proteins: increased the succinylation level on proteins at 48 and 72 hours
